Values quoted from earlier work, collected in patent US20080275076A1, “Pharmaceutical Compositions Comprising Sirolimus and/or an Analogue Thereof” (priority 2005, published 2008).

Settings: cited from earlier work

In the case of `CO[C@H]1C[C@@H]2CC[C@@H](C)[C@@](O)(O2)C(=O)C(=O)N2CCCC[C@H]2C(=O)O[C@H]([C@H](C)C[C@@H]2CC[C@@H](O)[C@H](OC)C2)CC(=O)[C@H](C)/C=C(\C)[C@@H](O)[C@@H](OC)C(=O)[C@H](C)C[C@H](C)/C=C/C=C/C=C/1C` [Sirolimus], the “solubility in organic solvents” value (benzyl alcohol, chloroform, acetone and acetonitrile) is given as “freely soluble” and the solubility in water (water) is given as “insoluble”.
